Measured values from patent publication CN115819587A.
These are yes or no findings as the source states them, for the method shown. Some entries that bind do so weakly or less than the wild type. Tags and fused reporters may be left off the sequences shown.

Sequences of proteins named here, by UniProt entry; tags and fusion partners are left off. Residues count along the entry.
UniProt P26715, residues 94-233: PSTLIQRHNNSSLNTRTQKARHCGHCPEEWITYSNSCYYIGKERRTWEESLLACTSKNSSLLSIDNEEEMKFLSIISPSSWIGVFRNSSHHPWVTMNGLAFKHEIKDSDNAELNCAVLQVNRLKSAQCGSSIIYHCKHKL

Molecular target: NKG2A抗原 (NKG2A蛋白胞外段) (human) (UniProt P26715)
Assay: ELISA on coated NKG2A antigen (200 ng/well), Goat Anti Human IgG-HRP

binding | Binder
binds | 人源化全抗分子 HA-1-IgG1 (antibody, V domains shown, not shown: a dimerising Fc or GST) VH: EVQLVESGGGLVKPGGSLRLSCAASGFTFSDYDMSWVRQAPGKGLEWVSTISSGGSYTYYPDSVKGRFTISRDNAKNSLYLQMNSLRAEDTAVYYCTSPRQVGLRKAFDYWGQGTTVTVSS VL: DVVMTQSPAFLSVTPGEKVTITCSASSSVSYMYWYQQKPDQAPKLLIKLTSNLASGVPSRFSGSGSGTDFTFTISSLEAEDAATYYCQQWSSNPFTFGQGTKLEIKR
binds | 人源化全抗分子 HA-2-IgG1 (antibody, V domains shown, not shown: a dimerising Fc or GST) VH: EVQLVESGGGLVKPGGSLRLSCAASGFAFSDYDMSWVRQAPGKGLEWVATISSGGSYTYYPDSVKGRFTISRDNAKNSLYLQMNSLRAEDTAVYYCTSPRQVGLRKAFDYWGQGTTVTVSS VL: DIVVTQSPAFLSVTPGEKVTITCSASSSVSYMYWYQQKPDQAPKLLIKLTSNLASGVPSRFSGSGSGTDFTFTISSLEAEDAATYYCQQWSSNPFTFGQGTKLEIKR
binds | 嵌合抗体CA-1 (MA-1 variable regions with human IgG1 / human Ck constant regions) (antibody, V domains shown) VH: EVKLEESGGGLVKPGGSLKLSCAASGFAFSDYDMSWVRQTPEKRLEWVATISSGGSYTYYPDSVKGRFTISRDNARNTLYLQMSSLRSEDTALYYCTSPRQVGLRKAFDYWGQGTTLTVSS VL: DIVVTQSPALMSASPGEKVTMTCSASSSVSYMYWYQQKPRSSPKSWIYLTSNLASGVPARFSGSGSGTSYSLTISSMEAEDAATYYCQQWSSNPFTFGSGTKLEIKR
